Assay [1] deals with T1, METTL16, C-terminal BirA* fusion (human) (UniProt Q86W50).
T1 sequence: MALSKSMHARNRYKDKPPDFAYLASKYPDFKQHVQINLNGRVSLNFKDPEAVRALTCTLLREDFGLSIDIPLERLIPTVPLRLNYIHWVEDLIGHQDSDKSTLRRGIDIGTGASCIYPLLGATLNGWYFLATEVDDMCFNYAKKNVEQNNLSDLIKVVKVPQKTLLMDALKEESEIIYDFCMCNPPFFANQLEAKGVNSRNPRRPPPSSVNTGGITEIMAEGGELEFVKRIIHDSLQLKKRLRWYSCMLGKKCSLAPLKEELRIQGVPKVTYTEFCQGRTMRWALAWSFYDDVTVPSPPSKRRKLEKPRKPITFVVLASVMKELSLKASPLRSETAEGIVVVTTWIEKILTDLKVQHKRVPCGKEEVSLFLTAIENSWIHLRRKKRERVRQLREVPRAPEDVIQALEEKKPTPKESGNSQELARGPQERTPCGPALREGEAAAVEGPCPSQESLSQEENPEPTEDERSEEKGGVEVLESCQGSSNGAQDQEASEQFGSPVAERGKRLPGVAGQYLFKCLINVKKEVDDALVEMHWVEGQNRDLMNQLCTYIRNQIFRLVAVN
In words: proximity labelling; BioID: BirA*-fused bait induced with 200 ng/ml dox in stable 293T cells, 50 μM biotin for 24 h, streptavidin bead purification of biotinylated proteins, LC-MS/MS; hits filtered by Limma (>4-fold, adjusted P < 0.01) and SAINT (score >0.74) against BirA* and NLS-BirA* controls.

Sequences of proteins named here, by UniProt entry; tags and fusion partners are left off.
UniProt Q6P6C2: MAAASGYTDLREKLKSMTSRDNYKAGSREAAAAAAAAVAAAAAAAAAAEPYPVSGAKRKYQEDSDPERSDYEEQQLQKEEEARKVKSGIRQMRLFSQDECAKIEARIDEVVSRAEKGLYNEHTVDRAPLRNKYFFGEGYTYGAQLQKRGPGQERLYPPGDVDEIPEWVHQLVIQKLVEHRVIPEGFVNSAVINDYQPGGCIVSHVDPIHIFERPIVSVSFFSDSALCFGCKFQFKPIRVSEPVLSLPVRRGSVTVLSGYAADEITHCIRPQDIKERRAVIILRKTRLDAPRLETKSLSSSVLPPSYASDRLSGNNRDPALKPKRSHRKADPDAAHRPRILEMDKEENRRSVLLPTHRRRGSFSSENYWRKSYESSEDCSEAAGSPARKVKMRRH
UniProt Q9H4Z3: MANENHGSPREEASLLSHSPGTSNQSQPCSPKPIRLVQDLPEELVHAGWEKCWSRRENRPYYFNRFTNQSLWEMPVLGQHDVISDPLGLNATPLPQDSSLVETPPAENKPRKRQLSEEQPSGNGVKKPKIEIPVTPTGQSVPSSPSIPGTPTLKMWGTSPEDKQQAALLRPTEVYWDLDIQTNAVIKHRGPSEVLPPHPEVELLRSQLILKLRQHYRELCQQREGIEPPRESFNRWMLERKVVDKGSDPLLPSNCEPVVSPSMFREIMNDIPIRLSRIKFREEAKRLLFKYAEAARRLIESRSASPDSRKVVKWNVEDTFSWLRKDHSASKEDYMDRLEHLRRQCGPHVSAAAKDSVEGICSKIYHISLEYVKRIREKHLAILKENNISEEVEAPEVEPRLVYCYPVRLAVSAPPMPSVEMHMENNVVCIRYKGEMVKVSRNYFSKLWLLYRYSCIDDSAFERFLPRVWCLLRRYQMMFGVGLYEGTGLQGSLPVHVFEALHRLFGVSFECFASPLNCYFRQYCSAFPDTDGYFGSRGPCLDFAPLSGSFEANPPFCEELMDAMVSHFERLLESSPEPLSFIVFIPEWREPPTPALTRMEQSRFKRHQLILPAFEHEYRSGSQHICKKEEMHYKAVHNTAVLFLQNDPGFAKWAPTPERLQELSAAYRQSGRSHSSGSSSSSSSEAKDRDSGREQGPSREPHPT
UniProt Q86U44: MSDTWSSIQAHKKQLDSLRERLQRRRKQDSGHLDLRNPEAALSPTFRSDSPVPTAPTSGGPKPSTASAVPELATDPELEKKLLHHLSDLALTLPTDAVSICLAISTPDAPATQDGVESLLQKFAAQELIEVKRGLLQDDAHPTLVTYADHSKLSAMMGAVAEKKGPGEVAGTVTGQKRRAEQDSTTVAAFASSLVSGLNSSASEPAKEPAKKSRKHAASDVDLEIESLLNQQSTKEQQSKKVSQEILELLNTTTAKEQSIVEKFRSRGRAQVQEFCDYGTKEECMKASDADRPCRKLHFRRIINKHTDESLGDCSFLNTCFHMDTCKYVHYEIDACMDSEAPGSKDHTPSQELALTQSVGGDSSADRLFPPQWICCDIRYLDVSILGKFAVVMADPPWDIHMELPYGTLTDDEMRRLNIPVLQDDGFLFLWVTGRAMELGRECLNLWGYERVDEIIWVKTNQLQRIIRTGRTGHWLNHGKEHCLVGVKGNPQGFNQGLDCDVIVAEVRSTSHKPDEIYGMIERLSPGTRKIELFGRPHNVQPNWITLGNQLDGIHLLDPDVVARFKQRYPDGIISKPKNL
UniProt Q9UNQ2: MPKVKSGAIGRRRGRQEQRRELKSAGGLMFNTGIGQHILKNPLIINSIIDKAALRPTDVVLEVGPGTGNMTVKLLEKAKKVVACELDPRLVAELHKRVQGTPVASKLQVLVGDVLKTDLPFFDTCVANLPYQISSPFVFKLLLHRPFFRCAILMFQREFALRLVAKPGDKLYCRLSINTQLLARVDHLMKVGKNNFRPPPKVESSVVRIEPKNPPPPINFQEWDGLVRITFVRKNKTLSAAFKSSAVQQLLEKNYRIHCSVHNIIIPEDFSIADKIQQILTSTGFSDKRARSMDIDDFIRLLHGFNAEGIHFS
UniProt P0CAP2: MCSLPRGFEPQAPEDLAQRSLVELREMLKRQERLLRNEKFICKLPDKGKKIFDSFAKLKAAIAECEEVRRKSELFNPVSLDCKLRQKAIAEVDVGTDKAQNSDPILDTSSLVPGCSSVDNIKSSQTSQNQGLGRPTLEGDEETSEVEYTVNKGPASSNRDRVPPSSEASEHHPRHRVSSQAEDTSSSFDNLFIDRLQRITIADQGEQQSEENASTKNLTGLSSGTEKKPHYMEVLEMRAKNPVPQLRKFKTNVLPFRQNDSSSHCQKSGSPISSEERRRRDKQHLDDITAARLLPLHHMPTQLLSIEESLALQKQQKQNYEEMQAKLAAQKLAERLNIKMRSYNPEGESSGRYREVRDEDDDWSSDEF
UniProt O94992: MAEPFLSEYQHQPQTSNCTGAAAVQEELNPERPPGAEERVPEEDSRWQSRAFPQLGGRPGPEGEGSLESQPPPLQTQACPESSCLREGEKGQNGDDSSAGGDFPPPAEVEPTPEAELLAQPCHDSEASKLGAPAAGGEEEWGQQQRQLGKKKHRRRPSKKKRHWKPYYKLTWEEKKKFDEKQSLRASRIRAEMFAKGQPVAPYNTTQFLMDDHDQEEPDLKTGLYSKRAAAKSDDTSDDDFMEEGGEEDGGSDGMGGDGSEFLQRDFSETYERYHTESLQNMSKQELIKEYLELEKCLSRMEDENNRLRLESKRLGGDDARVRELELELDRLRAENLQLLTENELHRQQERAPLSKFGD
UniProt Q13601: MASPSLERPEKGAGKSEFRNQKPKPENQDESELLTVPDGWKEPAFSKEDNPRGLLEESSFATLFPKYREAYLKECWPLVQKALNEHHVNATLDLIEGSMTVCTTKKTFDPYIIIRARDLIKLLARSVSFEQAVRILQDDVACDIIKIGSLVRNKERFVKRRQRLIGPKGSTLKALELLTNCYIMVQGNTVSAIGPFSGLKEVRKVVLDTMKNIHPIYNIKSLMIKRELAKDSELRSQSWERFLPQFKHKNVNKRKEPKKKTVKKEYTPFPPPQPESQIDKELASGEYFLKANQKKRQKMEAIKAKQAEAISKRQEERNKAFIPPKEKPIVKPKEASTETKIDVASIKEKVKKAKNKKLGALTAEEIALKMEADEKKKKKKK
UniProt Q9UPS6: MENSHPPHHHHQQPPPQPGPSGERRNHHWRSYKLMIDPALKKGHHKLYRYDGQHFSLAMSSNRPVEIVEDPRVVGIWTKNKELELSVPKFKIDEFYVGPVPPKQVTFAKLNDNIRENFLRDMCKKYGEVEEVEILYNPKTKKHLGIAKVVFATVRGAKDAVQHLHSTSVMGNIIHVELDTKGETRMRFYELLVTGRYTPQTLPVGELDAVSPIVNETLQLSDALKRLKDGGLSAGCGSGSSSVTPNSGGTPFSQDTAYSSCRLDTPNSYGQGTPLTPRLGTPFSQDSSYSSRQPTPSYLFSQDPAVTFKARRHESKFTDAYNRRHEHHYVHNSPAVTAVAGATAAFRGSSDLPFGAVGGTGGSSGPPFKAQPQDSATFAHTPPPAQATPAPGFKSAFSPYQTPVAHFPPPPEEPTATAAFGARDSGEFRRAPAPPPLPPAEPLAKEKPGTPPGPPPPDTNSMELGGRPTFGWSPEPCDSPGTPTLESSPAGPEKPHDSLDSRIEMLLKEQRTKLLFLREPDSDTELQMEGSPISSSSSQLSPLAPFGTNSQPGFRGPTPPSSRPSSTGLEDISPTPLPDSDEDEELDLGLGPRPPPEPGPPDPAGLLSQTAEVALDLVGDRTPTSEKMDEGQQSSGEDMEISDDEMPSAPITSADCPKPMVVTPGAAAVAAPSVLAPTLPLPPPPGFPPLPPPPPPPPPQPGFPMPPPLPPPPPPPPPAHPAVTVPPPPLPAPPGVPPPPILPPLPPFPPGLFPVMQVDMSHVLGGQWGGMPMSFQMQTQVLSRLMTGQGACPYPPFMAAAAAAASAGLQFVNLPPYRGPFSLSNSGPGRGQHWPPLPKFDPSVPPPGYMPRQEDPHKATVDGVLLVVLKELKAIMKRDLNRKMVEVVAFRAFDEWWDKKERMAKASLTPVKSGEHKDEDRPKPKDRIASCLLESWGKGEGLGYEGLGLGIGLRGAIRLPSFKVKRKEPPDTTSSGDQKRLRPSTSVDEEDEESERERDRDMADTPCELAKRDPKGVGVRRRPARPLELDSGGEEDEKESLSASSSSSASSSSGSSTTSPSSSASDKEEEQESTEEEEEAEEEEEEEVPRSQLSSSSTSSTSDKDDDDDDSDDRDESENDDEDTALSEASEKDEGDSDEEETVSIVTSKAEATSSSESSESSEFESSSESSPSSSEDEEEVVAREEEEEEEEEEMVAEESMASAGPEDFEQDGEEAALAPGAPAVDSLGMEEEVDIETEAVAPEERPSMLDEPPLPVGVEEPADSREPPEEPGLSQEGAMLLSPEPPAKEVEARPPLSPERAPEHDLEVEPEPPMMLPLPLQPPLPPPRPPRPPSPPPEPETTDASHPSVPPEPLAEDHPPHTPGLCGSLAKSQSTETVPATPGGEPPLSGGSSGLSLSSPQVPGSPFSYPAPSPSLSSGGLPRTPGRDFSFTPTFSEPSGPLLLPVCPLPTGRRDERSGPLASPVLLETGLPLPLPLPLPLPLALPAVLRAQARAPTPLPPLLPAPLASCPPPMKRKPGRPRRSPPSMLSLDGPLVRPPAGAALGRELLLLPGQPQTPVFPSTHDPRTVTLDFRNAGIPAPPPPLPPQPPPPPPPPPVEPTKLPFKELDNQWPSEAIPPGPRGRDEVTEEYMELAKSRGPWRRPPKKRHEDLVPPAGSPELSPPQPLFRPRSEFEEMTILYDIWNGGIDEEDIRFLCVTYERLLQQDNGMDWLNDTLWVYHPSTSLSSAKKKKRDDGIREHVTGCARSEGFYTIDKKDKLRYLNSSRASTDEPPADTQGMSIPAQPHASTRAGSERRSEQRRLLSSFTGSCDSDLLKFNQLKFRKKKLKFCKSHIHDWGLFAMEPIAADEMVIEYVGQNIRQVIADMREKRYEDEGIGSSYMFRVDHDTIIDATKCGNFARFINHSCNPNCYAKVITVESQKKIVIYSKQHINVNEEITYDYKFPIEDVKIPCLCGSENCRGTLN
UniProt Q13242: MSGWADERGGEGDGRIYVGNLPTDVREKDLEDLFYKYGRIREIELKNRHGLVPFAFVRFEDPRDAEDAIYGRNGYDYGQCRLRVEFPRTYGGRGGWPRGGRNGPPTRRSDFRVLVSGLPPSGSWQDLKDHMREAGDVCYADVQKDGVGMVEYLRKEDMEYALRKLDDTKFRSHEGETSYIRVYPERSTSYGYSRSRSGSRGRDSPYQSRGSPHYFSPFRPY
UniProt P51692: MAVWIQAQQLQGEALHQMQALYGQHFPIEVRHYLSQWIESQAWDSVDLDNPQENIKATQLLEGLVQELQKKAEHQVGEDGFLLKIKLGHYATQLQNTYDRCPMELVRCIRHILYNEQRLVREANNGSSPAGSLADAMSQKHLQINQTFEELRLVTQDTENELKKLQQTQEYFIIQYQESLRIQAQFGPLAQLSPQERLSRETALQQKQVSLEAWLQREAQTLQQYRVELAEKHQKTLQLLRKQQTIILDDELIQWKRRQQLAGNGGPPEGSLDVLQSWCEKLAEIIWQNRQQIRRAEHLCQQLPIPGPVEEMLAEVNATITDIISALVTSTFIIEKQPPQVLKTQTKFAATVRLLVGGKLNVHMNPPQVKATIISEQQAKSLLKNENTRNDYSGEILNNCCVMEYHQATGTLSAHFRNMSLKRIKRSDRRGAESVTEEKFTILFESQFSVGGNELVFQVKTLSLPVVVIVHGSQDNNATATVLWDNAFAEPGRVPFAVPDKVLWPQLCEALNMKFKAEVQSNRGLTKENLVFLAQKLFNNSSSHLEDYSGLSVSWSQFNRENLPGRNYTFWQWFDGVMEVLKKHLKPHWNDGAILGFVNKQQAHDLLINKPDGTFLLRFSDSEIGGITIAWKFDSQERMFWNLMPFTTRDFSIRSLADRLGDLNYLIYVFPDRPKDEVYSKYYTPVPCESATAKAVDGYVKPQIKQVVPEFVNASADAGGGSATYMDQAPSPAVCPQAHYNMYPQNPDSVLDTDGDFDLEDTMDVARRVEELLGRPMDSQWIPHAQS
UniProt Q9NX74: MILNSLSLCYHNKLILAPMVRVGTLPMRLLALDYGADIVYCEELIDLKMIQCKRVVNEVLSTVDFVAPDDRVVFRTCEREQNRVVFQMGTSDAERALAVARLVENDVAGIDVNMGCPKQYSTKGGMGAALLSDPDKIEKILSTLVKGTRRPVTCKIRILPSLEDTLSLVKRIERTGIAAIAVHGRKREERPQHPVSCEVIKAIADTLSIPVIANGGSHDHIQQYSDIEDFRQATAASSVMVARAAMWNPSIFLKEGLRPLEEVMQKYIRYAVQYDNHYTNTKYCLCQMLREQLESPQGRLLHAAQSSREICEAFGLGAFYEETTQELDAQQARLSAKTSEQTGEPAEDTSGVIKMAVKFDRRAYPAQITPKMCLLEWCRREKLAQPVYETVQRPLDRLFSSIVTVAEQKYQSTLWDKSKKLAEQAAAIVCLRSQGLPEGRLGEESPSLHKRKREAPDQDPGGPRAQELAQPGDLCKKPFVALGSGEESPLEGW

Assay [2] has as its target ALKBH5, BirA* fusion (human) (UniProt Q6P6C2). The description is as above.
In assay [3] the target is MAC-PCIF1 (HA-Strep II-BirA*-PCIF1) (human) (UniProt Q9H4Z3). In words: affinity purification with mass spectrometry; Strep II-tagged bait captured on StrepTactinXT beads from 293T total lysate, 4 h at 4°C, with RNase inhibitor (-RNase A) or with 2 μg/ml RNase A; washes with 350 mM KCl; LC-MS/MS; against Strep II-eGFP control.
Assay [4] has the same target. In words: proximity labelling; BioID: BirA*-fused bait induced with 200 ng/ml dox in stable 293T cells, 50 μM biotin for 24 h, streptavidin bead purification of biotinylated proteins, LC-MS/MS; hits filtered by Limma (>4-fold, adjusted P < 0.01) and SAINT (score >0.74) against BirA* and NLS-BirA* controls.
The target in assay [5] is FTO, N-terminal BirA* fusion (human) (UniProt Q9C0B1). The assay is described as above.
Assay [6] concerns the target ALKBH5-Strep II-HA (human) (UniProt Q6P6C2). In words: affinity purification with mass spectrometry; Strep II-tagged bait captured on StrepTactinXT beads from 293T total lysate, 4 h at 4°C, with RNase inhibitor (-RNase A) or with 2 μg/ml RNase A; washes with 350 mM KCl; LC-MS/MS; against Strep II-eGFP control.
Assay [7] has as its target METTL3, C-terminal BirA* fusion (human) (UniProt Q86U44). In words: proximity labelling; BioID: BirA*-fused bait induced with 200 ng/ml dox in stable 293T cells, 50 μM biotin for 24 h, streptavidin bead purification of biotinylated proteins, LC-MS/MS; hits filtered by Limma (>4-fold, adjusted P < 0.01) and SAINT (score >0.74) against BirA* and NLS-BirA* controls.
Assay [8] concerns the target METTL3, N-terminal BirA* fusion (human) (UniProt Q86U44). The description is as above.

Results are given in words; binding and its absence hold for the method and conditions named. Binding seen in cells or lysates may run through a third protein. Here binding means that the protein was enriched with, or labelled near, the bait; the list need not be complete. For part of these data: Sequences can lack the tags named with a protein.

On to Cyclin-T2 (from UniProt O60583 1-730), for which, in assay [1], the binding entry is reported as “binds”.
In the case of DDX39B (from UniProt Q13838 1-428), the binding entry in assay [2] is “binds”.
In the case of DIMT1 (from UniProt Q9UNQ2 1-313), the binding entry in assay [1] is given as “binds”.
As to “DNA helicase RECQ5 (from UniProt O94762 1-991) (enzyme)”, the binding entry in assay [3] and in assay [4] was “binds” in each case.
GINL1A (from UniProt P0CAP2 1-368): the binding entry in assay [3] is listed as “binds”.
Take HEXIM1 (from UniProt O94992 1-359): the binding result in assay [1] is “binds”.
For ICE1 (from UniProt Q9Y2F5 1-2266), the binding result in assay [5] and in assay [4] was “binds” each time.
Consider INT4 (from UniProt Q96HW7 1-963), for which the binding result in assay [4] is recorded as “binds”.
Take INT6 (from UniProt Q9UL03 1-887): the binding entry in assay [4] is “binds”.
On to KRR1 (from UniProt Q13601 1-381), for which the binding entry in assay [6] and in assay [2] was “binds” throughout.
Regarding MAGOH (from UniProt P61326 1-146), in assay [6], the binding result is reported as “binds”.
Regarding MAK16 (from UniProt Q9BXY0 1-300), the binding entry in assay [6] and in assay [2] was “binds” in each case.
For the substance PCF11 (from UniProt O94913 1-1555), the binding result in assay [4] is listed as “binds”.
Regarding RADX (from UniProt Q6NSI4 1-855), in assay [5], the binding result is “binds”.
As to RPRD2 (from UniProt Q5VT52 1-1461), the binding entry in assay [4] is recorded as “binds”.
As to “SETD1A (from UniProt O15047 1-1707) (enzyme)”, in assay [4], the binding result was “binds”.
On the same count and under the same terms, then “SETD1B (from UniProt Q9UPS6 1-1966) (enzyme)”, with “binds”.
As to SRSF9 (from UniProt Q13242 1-221), the binding result in assay [6] and in assay [2] was “binds” in each case.
Turning to STAT5B (from UniProt P51692 1-787), the binding entry in assay [7] and in assay [8] was “binds” in each case.
Regarding XRCC4 (from UniProt Q13426 1-336), the binding result in assay [5] was “binds”.
Consider ZC3H13 (from UniProt Q5T200 1-1668), for which the binding result in assay [7] and in assay [8] was “binds” throughout.
On to “dihydrouridine tRNA synthase DUS2L (from UniProt Q9NX74 1-493) (enzyme)”, for which, in assay [5], the binding result is recorded as “binds”.
As for eIF4A3 (from UniProt P38919 1-411), the binding result in assay [6] was “binds”.

The record behind these values is PMC8565353.
